For two substances, binding results are on record in paper doi:10.1101/2020.02.24.961524.

The chains behind the UniProt entries cited, without tags or fusion partners. Residues count along the entry.
UniProt P43220, residues 24-463: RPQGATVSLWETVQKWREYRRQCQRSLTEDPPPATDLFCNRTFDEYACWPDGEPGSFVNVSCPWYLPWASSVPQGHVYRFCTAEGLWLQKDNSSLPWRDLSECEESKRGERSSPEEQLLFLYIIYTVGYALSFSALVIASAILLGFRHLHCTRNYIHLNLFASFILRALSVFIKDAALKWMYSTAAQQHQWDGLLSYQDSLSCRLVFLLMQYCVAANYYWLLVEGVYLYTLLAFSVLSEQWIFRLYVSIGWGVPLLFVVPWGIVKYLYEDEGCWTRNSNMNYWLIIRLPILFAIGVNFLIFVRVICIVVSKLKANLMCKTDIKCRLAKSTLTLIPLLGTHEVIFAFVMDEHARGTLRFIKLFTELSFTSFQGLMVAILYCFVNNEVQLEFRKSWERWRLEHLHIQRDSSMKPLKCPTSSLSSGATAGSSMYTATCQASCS
UniProt P32121: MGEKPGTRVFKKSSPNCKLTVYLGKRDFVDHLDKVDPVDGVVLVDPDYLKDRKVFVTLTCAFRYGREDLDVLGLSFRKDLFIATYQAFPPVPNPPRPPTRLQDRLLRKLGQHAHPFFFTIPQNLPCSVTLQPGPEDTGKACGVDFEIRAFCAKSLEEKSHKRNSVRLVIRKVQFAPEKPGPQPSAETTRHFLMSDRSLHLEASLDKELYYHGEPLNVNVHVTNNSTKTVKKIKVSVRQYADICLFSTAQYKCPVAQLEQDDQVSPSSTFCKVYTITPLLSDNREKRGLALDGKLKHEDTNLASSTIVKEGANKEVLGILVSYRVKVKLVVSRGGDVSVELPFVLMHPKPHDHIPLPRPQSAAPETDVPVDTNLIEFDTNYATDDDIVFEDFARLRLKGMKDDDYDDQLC

Test [1] addresses GLP-1R of PathHunter CHO-K1-βarr2-EA-GLP-1R cells (UniProt P43220). Kind of test: split reporter.
Another test deals with GLP-1R-SmBiT (UniProt P43220). The experiment in a line: split reporter.

Results are given in words; binding and its absence hold for the method and conditions named. In cells and extracts the contact can be indirect. Some results given as binding are weak or reduced against the parent protein; the word gives no strength.

For the substance “β-arrestin-2-EA of PathHunter CHO-K1-βarr2-EA-GLP-1R cells (from UniProt P32121 1-409)”, in test [1], the binding entry is “binds”.

For the substance βarr2-LgBiT (from UniProt P32121 1-409), the binding entry in the test with GLP-1R-SmBiT is on record as “binds”.
